Assay [1] deals with T1, GST-fused Dyn2 (UniProt P50570 1-870).
T1 sequence (looked up): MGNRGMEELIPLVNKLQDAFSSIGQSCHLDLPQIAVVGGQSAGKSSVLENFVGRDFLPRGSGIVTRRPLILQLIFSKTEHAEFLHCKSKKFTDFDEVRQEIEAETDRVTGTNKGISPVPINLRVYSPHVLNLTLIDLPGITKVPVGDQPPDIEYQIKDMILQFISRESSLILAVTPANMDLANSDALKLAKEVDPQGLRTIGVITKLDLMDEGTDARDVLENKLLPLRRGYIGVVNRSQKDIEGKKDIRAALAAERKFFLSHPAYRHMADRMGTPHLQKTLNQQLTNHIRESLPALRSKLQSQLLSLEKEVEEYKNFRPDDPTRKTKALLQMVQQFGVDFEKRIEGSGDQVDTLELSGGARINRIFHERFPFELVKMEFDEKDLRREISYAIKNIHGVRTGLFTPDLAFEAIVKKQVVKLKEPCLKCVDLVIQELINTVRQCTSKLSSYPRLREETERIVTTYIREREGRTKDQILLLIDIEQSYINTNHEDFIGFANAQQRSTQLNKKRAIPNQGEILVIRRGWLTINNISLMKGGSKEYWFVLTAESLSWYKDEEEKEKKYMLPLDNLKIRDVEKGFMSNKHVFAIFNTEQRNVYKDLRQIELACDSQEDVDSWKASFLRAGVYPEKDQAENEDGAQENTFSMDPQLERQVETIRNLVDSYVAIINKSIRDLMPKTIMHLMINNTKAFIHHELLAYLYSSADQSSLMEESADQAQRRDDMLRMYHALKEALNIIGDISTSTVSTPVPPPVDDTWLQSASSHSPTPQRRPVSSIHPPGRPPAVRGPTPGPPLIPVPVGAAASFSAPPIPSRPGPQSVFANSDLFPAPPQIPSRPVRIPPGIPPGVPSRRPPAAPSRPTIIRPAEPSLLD
In words: far-Western, overlay or dot blot; one purified protein membrane-bound (His-Ndel1, 1 to 2 µg, or GST-Dyn2), overlaid with the other, detected with Dyn2 or Ndel1 antibody; both purified.

The target of assay [2] is T1, GST-fused Dyn2. In words: pull-down; GST-fused Dyn2, its GST fragments or GST with His-tagged Ndel1 on Glutathione Sepharose 4 Fast Flow or Ni-NTA Agarose beads; 20 mM HEPES, 150 mM NaCl, 1 mM DTT, 0.1% BSA, 4°C, 2 hours; both purified.
Assay [3] has as its target T2, Ndel1 (mouse, endogenous) (mouse (endogenous in adult mouse cortex and CAD cells)) (UniProt Q9ERR1).
T2 sequence: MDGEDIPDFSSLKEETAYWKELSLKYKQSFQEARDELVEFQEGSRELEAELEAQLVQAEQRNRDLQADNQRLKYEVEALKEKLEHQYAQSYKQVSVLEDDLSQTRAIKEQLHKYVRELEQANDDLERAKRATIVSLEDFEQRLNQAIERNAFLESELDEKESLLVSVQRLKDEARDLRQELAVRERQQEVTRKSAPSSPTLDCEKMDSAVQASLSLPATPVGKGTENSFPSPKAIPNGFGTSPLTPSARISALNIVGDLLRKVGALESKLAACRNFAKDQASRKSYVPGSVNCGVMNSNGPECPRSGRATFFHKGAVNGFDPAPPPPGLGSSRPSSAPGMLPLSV
Kind of assay: co-IP; immunoprecipitation with Ndel1 antibodies from lysates (HeLa cells, CAD cells, rat primary hippocampal neurons, adult mouse cortex); lysis buffer 50 mM Tris-HCl pH 7.4, 150 mM NaCl, 10 mM KCl, 1 mM EDTA, 0.5% NP40, 0.5% Tween-20; controls without antibody or with Myc antibody.

Assay [4] deals with T3, Ndel1 (rat, endogenous) (rat (endogenous in primary hippocampal neurons)) (UniProt Q78PB6).
T3 sequence: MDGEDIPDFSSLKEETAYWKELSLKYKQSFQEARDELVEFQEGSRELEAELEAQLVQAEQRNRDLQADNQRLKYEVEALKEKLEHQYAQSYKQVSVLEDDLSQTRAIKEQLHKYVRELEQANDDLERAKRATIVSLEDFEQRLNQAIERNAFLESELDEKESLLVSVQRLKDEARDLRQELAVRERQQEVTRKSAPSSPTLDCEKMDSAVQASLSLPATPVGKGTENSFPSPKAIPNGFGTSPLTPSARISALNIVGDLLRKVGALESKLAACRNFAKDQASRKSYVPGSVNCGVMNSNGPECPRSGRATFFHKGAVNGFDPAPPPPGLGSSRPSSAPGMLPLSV
The assay is described as above.

Assay [5] addresses T4, Ndel1 (human (endogenous in HeLa)) (UniProt Q9GZM8).
T4 sequence: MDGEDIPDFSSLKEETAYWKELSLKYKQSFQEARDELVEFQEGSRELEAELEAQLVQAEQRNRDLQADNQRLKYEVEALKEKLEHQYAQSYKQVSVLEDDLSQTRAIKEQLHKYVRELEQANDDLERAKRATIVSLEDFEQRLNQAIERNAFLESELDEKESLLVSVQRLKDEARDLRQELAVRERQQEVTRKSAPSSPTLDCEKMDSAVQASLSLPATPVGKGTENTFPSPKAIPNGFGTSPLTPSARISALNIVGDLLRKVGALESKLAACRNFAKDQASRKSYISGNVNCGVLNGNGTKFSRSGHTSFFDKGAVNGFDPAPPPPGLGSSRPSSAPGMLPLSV
The description is as above.

Results are given in words; binding and its absence hold for the method and conditions named. For some assays here: Binding seen in cells or lysates may run through a third protein. Some results given as binding are weak or reduced against the parent protein; the word gives no strength. For some assays here: Tags and fused reporters may be left off the sequences shown.

Among the data in article PMC3026782, “The Cytoskeletal Protein Ndel1 Regulates Dynamin 2 GTPase Activity” (PLoS ONE, 2011) are binding values, retold here.

B1: His-tagged Ndel1 (natural protein, UniProt Q9GZM8 1-345, looked up)
chain: MDGEDIPDFSSLKEETAYWKELSLKYKQSFQEARDELVEFQEGSRELEAELEAQLVQAEQRNRDLQADNQRLKYEVEALKEKLEHQYAQSYKQVSVLEDDLSQTRAIKEQLHKYVRELEQANDDLERAKRATIVSLEDFEQRLNQAIERNAFLESELDEKESLLVSVQRLKDEARDLRQELAVRERQQEVTRKSAPSSPTLDCEKMDSAVQASLSLPATPVGKGTENTFPSPKAIPNGFGTSPLTPSARISALNIVGDLLRKVGALESKLAACRNFAKDQASRKSYISGNVNCGVLNGNGTKFSRSGHTSFFDKGAVNGFDPAPPPPGLGSSRPSSAPGMLPLSV
As for B1, the binding entry with GST-fused Dyn2 [1] and with GST-fused Dyn2 [2] was “binds” in each case.

B2: Dynamin 2 (mouse, endogenous) (protein, UniProt P39054 1-870)
chain: MGNRGMEELIPLVNKLQDAFSSIGQSCHLDLPQIAVVGGQSAGKSSVLENFVGRDFLPRGSGIVTRRPLILQLIFSKTEYAEFLHCKSKKFTDFDEVRQEIEAETDRVTGTNKGISPVPINLRVYSPHVLNLTLIDLPGITKVPVGDQPPDIEYQIKDMILQFISRESSLILAVTPANMDLANSDALKLAKEVDPQGLRTIGVITKLDLMDEGTDARDVLENKLLPLRRGYIGVVNRSQKDIEGKKDIRAALAAERKFFLSHPAYRHMADRMGTPHLQKTLNQQLTNHIRESLPTLRSKLQSQLLSLEKEVEEYKNFRPDDPTRKTKALLQMVQQFGVDFEKRIEGSGDQVDTLELSGGARINRIFHERFPFELVKMEFDEKDLRREISYAIKNIHGVRTGLFTPDLAFEAIVKKQVVKLKEPCLKCVDLVIQELISTVRQCTSKLSSYPRLREETERIVTTYIREREGRTKDQILLLIDIEQSYINTNHEDFIGFANAQQRSTQLNKKRAIPNQGEILVIRRGWLTINNISLMKGGSKEYWFVLTAESLSWYKDEEEKEKKYMLPLDNLKIRDVEKGFMSNKHVFAIFNTEQRNVYKDLRQIELACDSQEDVDSWKASFLRAGVYPEKDQAENEDGAQENTFSMDPQLERQVETIRNLVDSYVAIINKSIRDLMPKTIMHLMINNTKAFIHHELLAYLYSSADQSSLMEESAEQAQRRDDMLRMYHALKEALNIIGDISTSTVSTPVPPPVDDTWLQNTSGHSPTPQRRPVSSVHPPGRPPAVRGPTPGPPLIPMPVGATSSFSAPPIPSRPGPQSVFANNDPFSAPPQIPSRPARIPPGIPPGVPSRRAPAAPSRPTIIRPAEPSLLD
In the case of B2, the binding result in assay [3] is “binds”.

B3: Dynamin 2 (rat, endogenous) (protein, UniProt P39052 1-870)
chain: MGNRGMEELIPLVNKLQDAFSSIGQSCHLDLPQIAVVGGQSAGKSSVLENFVGRDFLPRGSGIVTRRPLILQLIFSKTEYAEFLHCKSKKFTDFDEVRQEIEAETDRVTGTNKGISPVPINLRVYSPHVLNLTLIDLPGITKVPVGDQPPDIEYQIKDMILQFISRESSLILAVTPANMDLANSDALKLAKEVDPQGLRTIGVITKLDLMDEGTDARDVLENKLLPLRRGYIGVVNRSQKDIEGRKDIRAALAAERKFFLSHPAYRHMADRMGTPHLQKTLNQQLTNHIRESLPTLRSKLQSQLLSLEKEVEEYKNFRPDDPTRKTKALLQMVQQFGVDFEKRIEGSGDQVDTLELSGGARINRIFHERFPFELVKMEFDEKDLRREISYAIKNIHGVRTGLFTPDLAFEAIVKKQVVKLKEPCLKCVDLVIQELISTVRQCTSKLSSYPRLREETERIVTTYIREREGRTKDQILLLIDIEQSYINTNHEDFIGFANAQQRSTQLNKKRAIPNQGEILVIRRGWLTINNISLMKGGSKEYWFVLTAESLSWYKDEEEKEKKYMLPLDNLKIRDVEKGFMSNKHVFAIFNTEQRNVYKDLRQIELACDSQEDVDSWKASFLRAGVYPEKDQAENEDGAQENTFSMDPQLERQVETIRNLVDSYVAIINKSIRDLMPKTIMHLMINNTKAFIHHELLAYLYSSADQSSLMEESAEQAQRRDDMLRMYHALKEALNIIGDISTSTVSTPVPPPVDDTWLQNTSSHSPTPQRRPVSSVHPPGRPPAVRGPTPGPPLIPMPVGATSSFSAPPIPSRPGPQNVFANNDPFSAPPQIPSRPARIPPGIPPGVPSRRAPAAPSRPTIIRPAEPSLLD
As to B3, the binding entry in assay [4] was “binds”.

B4: Lis1 (protein, UniProt P43034 1-410)
chain: MVLSQRQRDELNRAIADYLRSNGYEEAYSVFKKEAELDVNEELDKKYAGLLEKKWTSVIRLQKKVMELESKLNEAKEEFTSGGPLGQKRDPKEWIPRPPEKYALSGHRSPVTRVIFHPVFSVMVSASEDATIKVWDYETGDFERTLKGHTDSVQDISFDHSGKLLASCSADMTIKLWDFQGFECIRTMHGHDHNVSSVAIMPNGDHIVSASRDKTIKMWEVQTGYCVKTFTGHREWVRMVRPNQDGTLIASCSNDQTVRVWVVATKECKAELREHEHVVECISWAPESSYSSISEATGSETKKSGKPGPFLLSGSRDKTIKMWDVSTGMCLMTLVGHDNWVRGVLFHSGGKFILSCADDKTLRVWDYKNKRCMKTLNAHEHFVTSLDFHKTAPYVVTGSVDQTVKVWECR
For B4, the binding entry in assay [5] is listed as “binds”.
